Some of these results come from one statement about several compounds together.
System: Vero cells
Experiment: Beta-galactosidase senescence staining
Type: cell-based, African monkey
Details: senescence induced by the agent; FIG. 1H

`CCCC(=O)[O-].[Na+]` [sodium butyrate] was tested, and the “beta gal positive cells” value was “more than 97%”.

Reference: US20240001155A1, “REVERSAL OF CELLULAR SENESCENCE BY TREATMENT WITH LOW FREQUENCY ULTRASOUND” (Mechanobiologics, Inc., priority 2022, published 2024)
